Screening data

Source: PubChem BioAssay AID504749 (NCATS, 2011).

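A panel of P. falciparum strains inside erythrocytes is exposed to compounds for three days, then a DNA-binding dye reports the amount of parasite DNA.
Each compound was titrated across a series from about 0.000037 to 29 µM.
The number is the fitted AC50, the concentration giving a half-maximal change in signal; a lower value means higher potency, whether the curve shows a decrease or an increase.
Calls follow the curve class and fit quality: every row here is inconclusive, covering signal-raising curves and weak, poorly fitted, partial or highest-dose-only inhibition curves.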

Values are in nM.
All entries here are filed as inconclusive.
Only part of the assay is shown, chiefly results filed as inconclusive.
A potency from a partial, single-point or poor curve is only a rough figure.
The first word of each remark tells which way the curve ran; it can be opposite to the aim of the assay.

SMILES,setting,fitted potency (nM),curve
CN[C@@H]1C[C@@H](c2ccc(Cl)c(Cl)c2)c2ccccc21,CP217,11220,"inhibitor, single point"
CN[C@@H]1C[C@@H](c2ccc(Cl)c(Cl)c2)c2ccccc21,CP262,19011,"activator, single point"
CN[C@@H]1C[C@@H](c2ccc(Cl)c(Cl)c2)c2ccccc21,ECU,12589,"inhibitor, single point"
CN[C@@H]1C[C@@H](c2ccc(Cl)c(Cl)c2)c2ccccc21,CP256,11220,"inhibitor, partial curve, poor fit"
CN[C@@H]1C[C@@H](c2ccc(Cl)c(Cl)c2)c2ccccc21,CP252,12589,"inhibitor, single point"
CN[C@@H]1C[C@@H](c2ccc(Cl)c(Cl)c2)c2ccccc21,CP269,11995,"inhibitor, partial curve, poor fit"
CN[C@@H]1C[C@@H](c2ccc(Cl)c(Cl)c2)c2ccccc21,CP194,16944,"inhibitor, single point"
CN[C@@H]1C[C@@H](c2ccc(Cl)c(Cl)c2)c2ccccc21,CP237,11220,"inhibitor, partial curve"
CN[C@@H]1C[C@@H](c2ccc(Cl)c(Cl)c2)c2ccccc21,CP291,8492,"inhibitor, partial curve"
CN[C@@H]1C[C@@H](c2ccc(Cl)c(Cl)c2)c2ccccc21,PAD,8912,"inhibitor, partial curve"
CN[C@@H]1C[C@@H](c2ccc(Cl)c(Cl)c2)c2ccccc21,AA1029,5012,"inhibitor, partial curve"
CN[C@@H]1C[C@@H](c2ccc(Cl)c(Cl)c2)c2ccccc21,PC26,6746,"inhibitor, partial curve"
CN[C@@H]1C[C@@H](c2ccc(Cl)c(Cl)c2)c2ccccc21,DFO2036,11220,"inhibitor, single point"
CN[C@@H]1C[C@@H](c2ccc(Cl)c(Cl)c2)c2ccccc21,AS120,12589,"inhibitor, partial curve"
CN[C@@H]1C[C@@H](c2ccc(Cl)c(Cl)c2)c2ccccc21,CP185,5012,"inhibitor, partial curve"
CN[C@@H]1C[C@@H](c2ccc(Cl)c(Cl)c2)c2ccccc21,CP305,15101,"inhibitor, partial curve, poor fit"
CN[C@@H]1C[C@@H](c2ccc(Cl)c(Cl)c2)c2ccccc21,CP265,7080,"inhibitor, partial curve"
COc1cc(N)c(Cl)cc1C(=O)N[C@H]1CCN(CCCOc2ccc(F)cc2)C[C@H]1OC,TAB109,3981,"inhibitor, single point"
COc1cc(N)c(Cl)cc1C(=O)N[C@H]1CCN(CCCOc2ccc(F)cc2)C[C@H]1OC,ICS,3548,"inhibitor, partial curve"
COc1cc(N)c(Cl)cc1C(=O)N[C@H]1CCN(CCCOc2ccc(F)cc2)C[C@H]1OC,N140,3162,"inhibitor, partial curve"
COc1cc(N)c(Cl)cc1C(=O)N[C@H]1CCN(CCCOc2ccc(F)cc2)C[C@H]1OC,P93_24,3162,"inhibitor, partial curve"
COc1cc(N)c(Cl)cc1C(=O)N[C@H]1CCN(CCCOc2ccc(F)cc2)C[C@H]1OC,PAD,3162,"inhibitor, single point"
COc1cc(N)c(Cl)cc1C(=O)N[C@H]1CCN(CCCOc2ccc(F)cc2)C[C@H]1OC,TAB113,3548,"inhibitor, single point"
COc1cc(N)c(Cl)cc1C(=O)N[C@H]1CCN(CCCOc2ccc(F)cc2)C[C@H]1OC,ECU,3548,"inhibitor, single point"
COc1cc(N)c(Cl)cc1C(=O)N[C@H]1CCN(CCCOc2ccc(F)cc2)C[C@H]1OC,SC27B,3162,"inhibitor, partial curve"
COc1cc(N)c(Cl)cc1C(=O)N[C@H]1CCN(CCCOc2ccc(F)cc2)C[C@H]1OC,HB3,3162,"inhibitor, single point"
COc1cc(N)c(Cl)cc1C(=O)N[C@H]1CCN(CCCOc2ccc(F)cc2)C[C@H]1OC,PC26,3220,"inhibitor, partial curve"
COc1cc(N)c(Cl)cc1C(=O)N[C@H]1CCN(CCCOc2ccc(F)cc2)C[C@H]1OC,GB4,5103,"inhibitor, partial curve"
COc1cc(N)c(Cl)cc1C(=O)N[C@H]1CCN(CCCOc2ccc(F)cc2)C[C@H]1OC,DIV30,6424,"inhibitor, partial curve"
Oc1ccc(Cl)cc1Cc1cc(Cl)ccc1O,ATS95,10000,"inhibitor, single point"
Oc1ccc(Cl)cc1Cc1cc(Cl)ccc1O,PAD,11220,"inhibitor, single point"
Oc1ccc(Cl)cc1Cc1cc(Cl)ccc1O,CP215,13459,"inhibitor, single point"
Oc1ccc(Cl)cc1Cc1cc(Cl)ccc1O,CP201,4256,"inhibitor, partial curve, poor fit"
Oc1ccc(Cl)cc1Cc1cc(Cl)ccc1O,P94_40,11220,"inhibitor, partial curve"
Oc1ccc(Cl)cc1Cc1cc(Cl)ccc1O,CP265,17782,"inhibitor, single point"
Oc1ccc(Cl)cc1Cc1cc(Cl)ccc1O,ECU,11220,"inhibitor, single point"
Oc1ccc(Cl)cc1Cc1cc(Cl)ccc1O,CP191,12589,"inhibitor, single point"
Oc1ccc(Cl)cc1Cc1cc(Cl)ccc1O,PC15,14125,"inhibitor, single point"
Oc1ccc(Cl)cc1Cc1cc(Cl)ccc1O,DIV17,9528,"inhibitor, partial curve, poor fit"
Oc1ccc(Cl)cc1Cc1cc(Cl)ccc1O,CP291,16944,"inhibitor, single point"
Oc1ccc(Cl)cc1Cc1cc(Cl)ccc1O,CP185,8912,"inhibitor, single point"
Oc1ccc(Cl)cc1Cc1cc(Cl)ccc1O,ATS189,8912,"inhibitor, partial curve"
Oc1ccc(Cl)cc1Cc1cc(Cl)ccc1O,GB4,11995,"inhibitor, partial curve"
Oc1ccc(Cl)cc1Cc1cc(Cl)ccc1O,PC26,19011,"inhibitor, single point"
Oc1ccc(Cl)cc1Cc1cc(Cl)ccc1O,DIV14,9528,"inhibitor, partial curve, poor fit"
Oc1ccc(Cl)cc1Cc1cc(Cl)ccc1O,CP256,10000,"inhibitor, single point"
Clc1ccc(C(c2ccccc2Cl)C(Cl)Cl)cc1 (stereo not given),CP286,12589,"inhibitor, single point"
Clc1ccc(C(c2ccccc2Cl)C(Cl)Cl)cc1 (stereo not given),W2,11995,"inhibitor, single point"
Clc1ccc(C(c2ccccc2Cl)C(Cl)Cl)cc1 (stereo not given),CP335,13459,"inhibitor, single point"
Clc1ccc(C(c2ccccc2Cl)C(Cl)Cl)cc1 (stereo not given),CP191,17782,"inhibitor, single point"
Clc1ccc(C(c2ccccc2Cl)C(Cl)Cl)cc1 (stereo not given),ICS,17782,"inhibitor, single point"
Clc1ccc(C(c2ccccc2Cl)C(Cl)Cl)cc1 (stereo not given),CP305,13459,"inhibitor, single point"
Clc1ccc(C(c2ccccc2Cl)C(Cl)Cl)cc1 (stereo not given),CP260,11220,"inhibitor, single point"
Clc1ccc(C(c2ccccc2Cl)C(Cl)Cl)cc1 (stereo not given),DIV17,21331,"inhibitor, single point"
Clc1ccc(C(c2ccccc2Cl)C(Cl)Cl)cc1 (stereo not given),CP211,19011,"inhibitor, single point"
Clc1ccc(C(c2ccccc2Cl)C(Cl)Cl)cc1 (stereo not given),GB4,21331,"inhibitor, single point"

Once more, the final 4:

| SMILES | setting | fitted potency (nM) | curve |
|---|---|---|---|
| `Clc1ccc(C(c2ccccc2Cl)C(Cl)Cl)cc1` (stereo not given) | CP260 | 11220 | inhibitor, single point |
| `Clc1ccc(C(c2ccccc2Cl)C(Cl)Cl)cc1` (stereo not given) | DIV17 | 21331 | inhibitor, single point |
| `Clc1ccc(C(c2ccccc2Cl)C(Cl)Cl)cc1` (stereo not given) | CP211 | 19011 | inhibitor, single point |
| `Clc1ccc(C(c2ccccc2Cl)C(Cl)Cl)cc1` (stereo not given) | GB4 | 21331 | inhibitor, single point |